Assay results reported in patent US7812042B2, “Pharmaceutical compositions and therapeutic applications for the use of a novel vitamin B12 derivative, N-acetyl-L-cysteinylcobalamin” (priority 2006, dated 2010).
Where “and” joins values, the source holds several entries; their conditions need not be identical. Equal values may be shown once. This continues a long series; more values of the same kind are listed elsewhere.

Key:
SK-HEP-1 cells [1] = experiment: Protection of endothelial cells from H2O2-induced cell death (MTS assay); format: cell-based, Human; settings: single replicates n = 6
Experimental: The effect of increasing concentrations of NACCbl and GSCbl to protect endothelial cells from the effect of H2O2 was assessed. […] Cell viability was determined by MTS® assay. […] Cell viability was determined by MTS® assay. […] Cell viability was determined by MTS® assay.

SK-HEP-1 cells [2] = experiment: NACCbl protection from homocysteine with Hsp32/Hsp70 inhibited by Sn(IX) protoporphyrin, quercitin or siRNA (MTS assay); format: cell-based, Human; settings: NACCbl 30 μM two hours with/without siRNA for Hsp32, Hsp70
[3] = cobalamin 30 μM two hours, then H2O2 0 μM
[4] = cobalamin 30 μM two hours, then H2O2 0.781 μM two hours
[5] = cobalamin 30 μM two hours, then H2O2 1.56 μM two hours
[6] = cobalamin 30 μM two hours, then H2O2 3.125 μM two hours
[7] = cobalamin 30 μM two hours, then H2O2 6.25 μM two hours
[8] = cobalamin 30 μM two hours, then H2O2 12.5 μM two hours
[9] = cobalamin 30 μM two hours, then H2O2 25 μM two hours
[10] = cobalamin 30 μM two hours, then H2O2 50 μM two hours
[11] = cobalamin 30 μM two hours, then H2O2 100 μM two hours
[12] = cobalamin 30 μM two hours, then H2O2 200 μM two hours
[13] = cobalamin concentration 1.562 (μM) 2 hours, then 25 μM H2O2 24 hours
[14] = cobalamin concentration 3.125 (μM) 2 hours, then 25 μM H2O2 24 hours
[15] = cobalamin concentration 6.25 (μM) 2 hours, then 25 μM H2O2 24 hours
[16] = cobalamin concentration 12.5 (μM) 2 hours, then 25 μM H2O2 24 hours
[17] = cobalamin concentration 25 (μM) 2 hours, then 25 μM H2O2 24 hours
[18] = cobalamin concentration 50 (μM) 2 hours, then 25 μM H2O2 24 hours
[19] = cobalamin concentration 100 (μM) 2 hours, then 25 μM H2O2 24 hours
[20] = cobalamin concentration 200 (μM) 2 hours, then 25 μM H2O2 24 hours

Row | Compound | cell viability (MTS) (SK-HEP-1 cells [1]; [3]) | cell viability (MTS) (SK-HEP-1 cells [1]; [4]) | cell viability (MTS) (SK-HEP-1 cells [1]; [5]) | cell viability (MTS) (SK-HEP-1 cells [1]; [6]) | cell viability (MTS) (SK-HEP-1 cells [1]; [7]) | cell viability (MTS) (SK-HEP-1 cells [1]; [8]) | cell viability (MTS) (SK-HEP-1 cells [1]; [9]) | cell viability (MTS) (SK-HEP-1 cells [1]; [10]) | cell viability (MTS) (SK-HEP-1 cells [1]; [11]) | cell viability (MTS) (SK-HEP-1 cells [1]; [12]) | cell viability (MTS) (SK-HEP-1 cells [1]; [13]) | cell viability (MTS) (SK-HEP-1 cells [1]; [14]) | cell viability (MTS) (SK-HEP-1 cells [1]; [15]) | cell viability (MTS) (SK-HEP-1 cells [1]; [16]) | cell viability (MTS) (SK-HEP-1 cells [1]; [17]) | cell viability (MTS) (SK-HEP-1 cells [1]; [18]) | cell viability (MTS) (SK-HEP-1 cells [1]; [19]) | cell viability (MTS) (SK-HEP-1 cells [1]; [20]) | other results
1 | CC(=O)NC(C[S-])C(=O)O.CC1=C2N=C(C=C3N=C(C(C)=C4[N-]C(C(CC(N)=O)C4(C)CCC(=O)NCC(C)OP(=O)([O-])OC4C(CO)OC(n5cnc6cc(C)c(C)cc65)C4O)C4(C)N=C1C(CCC(N)=O)C4(C)CC(N)=O)C(CCC(N)=O)C3(C)C)C(CCC(N)=O)C2(C)CC(N)=O.[Co+3] [NACCbl, N-acetyl-L-cysteinylcobalamin] | 102.9844 and 100.8053 and 103.2212 and 107.9583 and 101.8948 and 98.44 | 93.46 and 102.7949 and 99.24 and 101.3738 and 103.2686 and 95.45 | 98.53 and 91.38 and 98.72 and 100.1421 and 89.77 and 96.12 | 88.2 and 93.18 and 92.89 and 99.76 and 92.42 and 91.8 | 88.2 and 87.59 and 82.14 and 81.57 and 78.07 and 77.12 | 77.17 and 76.98 and 76.6 and 67.12 and 77.6883 and 74.14 | 67.12 and 66.75 and 61.87 and 56.18 and 55.3766 and 55.95 | 50.21 and 48.27 and 44.955 and 45.71 and 48.18 and 44.58 | 29.99 and 23.97 and 19.56 and 18.901 and 17.53 and 20.89 | 5.2108 and 7.153 and 1.99 and 0.6632 | 4.677 and 1.845 and 5.27 and 1.647 and 4.348 and 5.599 | 26.8116 and 19.5 and 35.84 and 30.5 and 35.24 and 33 | 42.8195 and 42.09 and 39.39 and 30.9 and 28 and 38.4058 | 45.26 and 41.7 and 44.99 and 45.5863 and 42.23 and 47.36 | 46.9 and 46.77 and 45.26 and 42.69 and 45.72 and 48.16 | 56.65 and 49.93 (2×) and 60.2108 and 63.24 and 57.11 | 61.5942 and 56.59 and 70.22 and 74.37 and 64.23 and 61.79 | 100.7246 and 99.7365 and 101.8445 and 107.3123 and 92.69 and 97.56 | Mean cell viability (MTS, FIG. 12), normalized to 0 Hcy = 100 (SK-HEP-1 cells [2]; Hcy 0): 100; Mean cell viability (MTS, FIG. 12), normalized to 0 Hcy = 100 (SK-HEP-1 cells [2]; Hcy 1.78 (μM) two hours, where named): 97.05; Mean cell viability (MTS, FIG. 12), normalized to 0 Hcy = 100 (SK-HEP-1 cells [2]; Hcy 3.125 (μM) two hours, where named): 91.34; Mean cell viability (MTS, FIG. 12), normalized to 0 Hcy = 100 (SK-HEP-1 cells [2]; Hcy 6.25 (μM) two hours, where named): 89.85; Mean cell viability (MTS, FIG. 12), normalized to 0 Hcy = 100 (SK-HEP-1 cells [2]; Hcy 12.5 (μM) two hours, where named): 82.84; Mean cell viability (MTS, FIG. 12), normalized to 0 Hcy = 100 (SK-HEP-1 cells [2]; Hcy 25 (μM) two hours, where named): 73.76; Mean cell viability (MTS, FIG. 12), normalized to 0 Hcy = 100 (SK-HEP-1 cells [2]; Hcy 50 (μM) two hours, where named): 59.07; Mean cell viability (MTS, FIG. 12), normalized to 0 Hcy = 100 (SK-HEP-1 cells [2]; Hcy 100 (μM) two hours, where named): 55.17; Mean cell viability (MTS, FIG. 12), normalized to 0 Hcy = 100 (SK-HEP-1 cells [2]; Hcy 200 (μM) two hours, where named): 43.9595
2 | C/C1=C2N=C(/C=C3N=C(/C(C)=C4\[N-]C(C(CC(N)=O)C4(C)CCC(=O)NCC(C)OP(=O)([O-])OC4C(CO)OC(n5cnc6cc(C)c(C)cc65)C4O)C4(C)N=C1C(CCC(N)=O)C4(C)CC(N)=O)C(CCC(N)=O)C\3(C)C)C(CCC(N)=O)C/2(C)CC(N)=O.NC(CCC(=O)NC(C[S-])C(=O)NCC(=O)O)C(=O)O.[Co+3] (stereo not drawn) [GSCbl, Glutathionylcobalamin, reference compound] | 99.24 and 102.2264 and 105.5898 and 103.6002 and 104.0265 and 104.5476 | 96.12 and 98.39 and 97.3946 and 98.0578 and 96.02 and 95.31 | 93.56 and 90.81 (2×) and 92.33 and 88.25 and 91.8522 | 40.31 and 91.33 and 87.3046 and 82.33 and 79.77 and 77.59 | 36.52 and 39.7442 and 34.49 and 34.72 and 34.86 and 36.1 | 29.7963 and 32.02 and 36.1 and 32.4 and 29.99 and 33.92 | 23.54 and 26.53 and 22.93 and 24.44 and 22.03 and 20.42 | 15.02 and 20.8432 and 18.95 and 13.12 and 15.6324 and 17.62 | 10.8 and 12.36 and 11.5585 and 9.995 and 6.679 and 8.527 | 1.326 and 7.153 and 3.6 and 1.942 and 5.921 and 0.7579 | 6.061 and 1.12 and 2.635 | 20.88 and 30.9 and 21.34 and 26.8116 and 19.5 and 29.25 | 48.68 and 56.26 and 45.98 and 43.35 and 42.09 and 41.96 | 44.27 and 54.35 and 50.53 and 47.04 and 44.14 and 42.09 | 41.24 and 45.5863 and 42.23 and 45.26 and 41.7 and 44.99 | 42.69 and 45.72 and 48.16 and 46.9 and 46.77 and 51.84 | 64.62 (2×) and 77.87 and 71.61 and 72.6 and 76.5481 | 94.07 and 100.0659 and 102.8327 and 93.87 and 105.5995 and 94.73 | 
